Publication PMC9220252
No constants are given. Whether binding was seen depends on the method and setting. In cells and extracts the contact can be indirect. Some binding calls cover weakened binding; strength is not graded here.

Amino acid sequences for entries named in this document (tags omitted).
UniProt P52480: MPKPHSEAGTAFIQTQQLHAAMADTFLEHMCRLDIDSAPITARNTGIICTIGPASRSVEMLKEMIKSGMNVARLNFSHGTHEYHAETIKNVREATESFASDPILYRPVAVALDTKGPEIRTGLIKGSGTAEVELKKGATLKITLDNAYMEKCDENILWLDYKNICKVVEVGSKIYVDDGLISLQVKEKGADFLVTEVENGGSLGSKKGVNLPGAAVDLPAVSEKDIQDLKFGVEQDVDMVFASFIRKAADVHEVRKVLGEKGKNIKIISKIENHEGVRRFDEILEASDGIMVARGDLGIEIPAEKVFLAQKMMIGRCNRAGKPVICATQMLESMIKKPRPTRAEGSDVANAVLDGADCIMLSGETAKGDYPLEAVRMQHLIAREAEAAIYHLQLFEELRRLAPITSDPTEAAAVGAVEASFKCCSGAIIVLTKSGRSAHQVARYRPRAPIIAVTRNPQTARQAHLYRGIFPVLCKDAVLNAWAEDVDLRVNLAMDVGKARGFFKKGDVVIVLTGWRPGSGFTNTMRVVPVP
UniProt P14618: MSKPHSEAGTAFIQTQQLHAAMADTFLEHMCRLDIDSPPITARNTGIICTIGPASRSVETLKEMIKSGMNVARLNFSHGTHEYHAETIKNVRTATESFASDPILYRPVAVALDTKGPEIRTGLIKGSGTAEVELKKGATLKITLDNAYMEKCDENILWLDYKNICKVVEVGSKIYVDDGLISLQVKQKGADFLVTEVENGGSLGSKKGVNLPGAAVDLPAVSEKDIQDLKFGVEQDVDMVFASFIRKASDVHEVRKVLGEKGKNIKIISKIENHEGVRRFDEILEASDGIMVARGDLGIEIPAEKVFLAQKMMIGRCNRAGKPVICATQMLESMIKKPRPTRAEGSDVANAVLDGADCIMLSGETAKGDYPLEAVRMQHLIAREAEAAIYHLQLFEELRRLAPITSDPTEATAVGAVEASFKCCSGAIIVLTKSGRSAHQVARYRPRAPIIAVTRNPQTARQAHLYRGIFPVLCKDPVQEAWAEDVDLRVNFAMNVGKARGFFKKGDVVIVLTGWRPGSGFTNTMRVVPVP
UniProt P11980: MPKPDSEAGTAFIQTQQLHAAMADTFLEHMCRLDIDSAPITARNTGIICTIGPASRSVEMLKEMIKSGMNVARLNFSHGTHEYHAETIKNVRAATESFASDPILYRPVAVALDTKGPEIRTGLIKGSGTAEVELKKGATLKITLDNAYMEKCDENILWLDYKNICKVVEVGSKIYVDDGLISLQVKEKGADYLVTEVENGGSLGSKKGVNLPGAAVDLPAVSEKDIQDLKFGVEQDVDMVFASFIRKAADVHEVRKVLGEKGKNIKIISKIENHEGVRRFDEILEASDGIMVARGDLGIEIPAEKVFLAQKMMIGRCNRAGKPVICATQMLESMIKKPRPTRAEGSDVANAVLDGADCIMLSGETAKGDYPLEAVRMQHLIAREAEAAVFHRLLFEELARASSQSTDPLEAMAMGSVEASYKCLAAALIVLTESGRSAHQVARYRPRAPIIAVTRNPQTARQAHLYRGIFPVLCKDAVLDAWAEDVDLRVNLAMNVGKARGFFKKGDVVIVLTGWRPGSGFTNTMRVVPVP

Key:
[1] = biological target: Pyruvate kinase M2 (PKM2), mouse cell lines (mouse (endogenous in Hepa1c1c7 and 4T1)) (UniProt P52480); experiment: co-IP; immunoprecipitation with PKM2 antibody from lysates of Hepa1c1c7 cells stimulated with insulin (100 nM, indicated time); Western blotting
[2] = biological target: Pyruvate kinase M2 (PKM2), mouse cell lines (mouse (endogenous in Hepa1c1c7 and 4T1)) (UniProt P52480); experiment: co-IP; 4T1 cells treated with LPS (10 µg/mL at 4 h); PKM2 immunoprecipitated; Western blotting
[3] = biological target: Pyruvate kinase M2 (PKM2), HepG2 cells (human (endogenous in HepG2)), P14618; experiment: co-IP; endogenous proteins immunoprecipitated with specific antibody and protein A/G beads from lysates of HepG2 cells stimulated with insulin (100 nM); SDS-PAGE and Western blotting; details: remark: other sources report otherwise
[4] = biological target: Pyruvate kinase M2 (PKM2), HepG2 cells (human (endogenous in HepG2)) (UniProt P14618); experiment: as above
[5] = biological target: PKM1, normal rat liver (rat (endogenous in liver)) (UniProt P11980); experiment: co-IP; liver of rats treated with insulin (10 U/kg body weight for 2 h); immunoprecipitated with PKM1 antibody, blotted with p-PDHA1 antibody

B1: p-Ser293 PDHA1 (p-PDHA1), mouse cell lines (protein, UniProt P35486 30-390)
chain: FANDATFEIKKCDLHRLEEGPPVTTVLTREDGLKYYRMMQTVRRMELKADQLYKQKIIRGFCHLCDGQEACCVGLEAGINPTDHLITAYRAHGFTFTRGLPVRAILAELTGRRGGCAKGKGGSMHMYAKNFYGGNGIVGAQVPLGAGIALACKYNGKDEVCLTLYGDGAANQGQIFEAYNMAALWKLPCIFICENNRYGMGTSVERAAASTDYYKRGDFIPGLRVDGMDILCVREATKFAAAYCRSGKGPILMELQTYRYHGHSMSDPGVSYRTREEIQEVRSKSDPIMLLKDRMVNSNLASVEELKEIDVEVRKEIEDAAQFATADPEPPLEELGYHIYSSDPPFEVRGANQWIKFKSVS
modifications: phosphoserine at Ser293
[1]
  binding: binds
[2]
  binding: binds

B2: PDC E2 subunit (dihydrolipoyl transacetylase E2), HepG2 cells, P10515 87-647 (protein)
chain: SLPPHQKVPLPSLSPTMQAGTIARWEKKEGDKINEGDLIAEVETDKATVGFESLEECYMAKILVAEGTRDVPIGAIICITVGKPEDIEAFKNYTLDSSAAPTPQAAPAPTPAATASPPTPSAQAPGSSYPPHMQVLLPALSPTMTMGTVQRWEKKVGEKLSEGDLLAEIETDKATIGFEVQEEGYLAKILVPEGTRDVPLGTPLCIIVEKEADISAFADYRPTEVTDLKPQVPPPTPPPVAAVPPTPQPLAPTPSAPCPATPAGPKGRVFVSPLAKKLAVEKGIDLTQVKGTGPDGRITKKDIDSFVPSKVAPAPAAVVPPTGPGMAPVPTGVFTDIPISNIRRVIAQRLMQSKQTIPHYYLSIDVNMGEVLLVRKELNKILEGRSKISVNDFIIKASALACLKVPEANSSWMDTVIRQNHVVDVSVAVSTPAGLITPIVFNAHIKGVETIANDVVSLATKAREGKLQPHEFQGGTFTISNLGMFGIKNFSAIINPPQACILAIGASEDKLVPADNEKGFDVASMMSVTLSCDHRVVDGAVGAQWLAEFRKYLEKPITMLL
[3]
  binding: no binding

B3: PDC E3 subunit (dihydrolipoyl dehydrogenase E3), HepG2 cells (protein, UniProt P09622 36-509)
chain: ADQPIDADVTVIGSGPGGYVAAIKAAQLGFKTVCIEKNETLGGTCLNVGCIPSKALLNNSHYYHMAHGKDFASRGIEMSEVRLNLDKMMEQKSTAVKALTGGIAHLFKQNKVVHVNGYGKITGKNQVTATKADGGTQVIDTKNILIATGSEVTPFPGITIDEDTIVSSTGALSLKKVPEKMVVIGAGVIGVELGSVWQRLGADVTAVEFLGHVGGVGIDMEISKNFQRILQKQGFKFKLNTKVTGATKKSDGKIDVSIEAASGGKAEVITCDVLLVCIGRRPFTKNLGLEELGIELDPRGRIPVNTRFQTKIPNIYAIGDVVAGPMLAHKAEDEGIICVEGMAGGAVHIDYNCVPSVIYTHPEVAWVGKSEEQLKEEGIEYKVGKFPFAANSRAKTNADTDGMVKILGQKSTDRVLGAHILGPGAGEMVNEAALALEYGASCEDIARVCHAHPTLSEAFREANLAASFGKSINF
[4]
  binding: no binding

B4: p-Ser293 PDHA1 (p-PDHA1), normal rat liver (protein, UniProt P26284 30-390)
chain: FANDATFEIKKCDLHRLEEGPPVTTVLTREDGLKYYRMMQTVRRMELKADQLYKQKIIRGFCHLCDGQEACCVGLEAGINPTDHLITAYRAHGFTFNRGHAVRAILAELTGRRGGCAKGKGGSMHMYAKNFYGGNGIVGAQVPLGAGIALACKYNGKDEVCLTLYGDGAANQGQIFEAYNMAALWKLPCIFICENNRYGMGTSVERAAASTDYYKRGDFIPGLRVDGMDILCVREATKFAAAYCRSGKGPILMELQTYRYHGHSMSDPGVSYRTREEIQEVRSKSDPIMLLKDRMVNSNLASVEELKEIDVEVRKEIEDAAQFATADPEPPLEELGYHIYSSDPPFEVRGANQWIKFKSVS
modifications: phosphoserine at Ser293
[5]
  binding: no binding
